Results: article PMC10163288
The list shows a part of the results.

B1: il2ra_site2_2erj_normal_mot_8fa6976bf83f87873b50afdd12020151_0001_1_000000155_0001_14_31_H_._HHH_b2_02569_af2_0001_0000200027_0000001_0 (protein)
chain: SSSSSEELEEAFELLNRLIRALHEGDEELAEELLEEAEELLKHLGNEDFLRLLEKFFEQQRSSSS
B2: il2ra_site1_2b5i_sap_12_mot_HHH_b1_01240_af2_000000288_0001_42_55_H_._HHH_b1_08370_af2_0001_0000500032_0000001_0_0001 (protein)
chain: SLEEVEEELKKLVNDPEAERLIEEVVKQAERLNQPPEQLLSALFLVARARGDKELREAVQALMKK
B3: il2ra_site1_1z92_normal_mot_f45a65fa70d066dfb2bff9ecbb6071cf_0001_000000240_0001_35_50_H_._8c743c81d45538ffdda9094a56d977d2_0001_0001_0000100013_0000001_0_af2pr … (protein)
chain: DAREALEEHEEELGDPEEAVEVLFRYLEELTGDPRNAEIYLRQVLERLGIPPEEVERLLRLAKER
B4: il2ra_site1_2b5i_normal_mot_f5ff40796168375b462bec8614a1db4a_0001_1_000000138_0001_53_65_H_._HHH_b2_07452_0001_0000500039_0000001_0_af2pred_dldesign_0_af2pred (protein)
chain: SSSSDLRDIVEELIEEAKRLKEEGDLERAYKLLVLARRAARKGGLEDTVARLDELLEELRSSSSS
B5: il2ra_site1_2b5i_sap_12_mot_627d5055ffbafe6b99dea3f03486282b_0001_1_000000067_0001_18_32_H_._448c55fe706e6ec391655c6bc0ba6a29_0001_1_af2_0001_0000300012_0000001 … (protein)
chain: SSSSSSSLEELTRELLAKAAKEKDPLKRKKILLLARRTAKKAGNEELLAEVEARLASLSSSSSSS
B6: il2ra_site2_2erj_normal_mot_HHH_b1_04373_af2_000000118_0001_18_33_H_._HHH_b1_02368_af2_0001_0000200015_0000001_0 (protein)
chain: SSSSDEELREEVEELLERAREAYEEGDLELVYELAVEAAHFAARNQDEELLELILEVVERLSSSS
B7: il2ra_site2_3nfp_normal_mot_HHH_b1_01086_af2_000000264_0001_39_53_H_._HHH_b2_02085_0001_0000300023_0000001_0_af2pred_0001_af2pred_1_swapped (protein)
chain: SSSSDEELREEIEELLEEAKRIEDEARVLLLLARARLLALENQDDELARLVREVAKELRSSSSSS
B8: il2ra_site1_2b5i_normal_mot_HHH_b2_04910_000000118_0001_1_19_H_._HHH_b1_03583_0001_0000600026_0000001_0_af2pred_dldesign_0_af2pred (protein)
chain: SSSSSTEEIRKLLLEADKLKQAGKDEEALEVLEKALELAKKAKNPLWIKIIESAIKDLLESSSSS
B9: il2ra_site2_3nfp_normal_mot_HHH_b1_00660_af2_000000090_0001_40_57_H_._HHH_b1_02730_0001_0001000022_0000001_0 (protein)
chain: SSSSSDEEVRELLEQLRELIEKNDEEEFERLSREITNLAYELNNFELFALVQELRARFISSSSSS
B10: il2ra_site1_2b5i_normal_mot_f5ff40796168375b462bec8614a1db4a_0001_1_000000138_0001_53_65_H_._HHH_b1_07093_0001_0000700041_0000001_0_af2pred_dldesign_0_af2pred (protein)
chain: SSSSEDARELVLELKEEAERLAAAGRREEAKRLLILALRLAKKNNDEELVEEIEALLKELESSSS
B11: il2ra_site1_2b5i_sap_21_mot_HHH_b2_07467_000000079_0001_1_17_H_._5f3e9e6710cf722fe56a0b12d5cb6937_0001_0001_0000300034_0000001_0_0001_af2pred_dldesign_0_af2pred (protein)
chain: SSSSSSKEALRLFLEANELYQAGKEEEAKKKLEEALELAKKEGTTSIAKLIENALKILSSSSSSS
B12: il2ra_site1_2b5i_normal_mot_HHH_b1_08745_af2_000000166_0001_39_57_H_._HHH_b2_03408_0001_0000300018_0000001_0_af2pred_0001_af2pred (protein)
chain: SSSSSEEAEKVFELIEEANRLSRNGNPEQAREVLERALEIAEELGSRNLFRFVRAALKLLSSSSS
B13: il2ra_site1_2b5i_normal_mot_22370d59370c406a0c205a431f537cfa_0001_af2_000000141_0001_1_31_H_._HHH_b2_04268_af2_0001_0001200053_0000001_0_af2pred_dldesign_0_af2p … (protein)
chain: SSSSSKEEALEVSDVIEELVEKLGLSDEQYATLSRLAVDLLYKGVSAEEIKERLKALAEELSSSS
B14: il2ra_site1_1z92_normal_mot_30aa582283ecb64a35315be28fff3e94_0001_000000110_0001_35_49_H_._HHH_b2_03912_0001_0000100005_0000001_0 (protein)
chain: SSSSEQLKRIAERLVEDFVRLADLSEEDQKYLEEVAKELLEEGYSSQEIAEILAKEALKLESSSS
B15: il2ra_site1_1z92_normal_mot_203a44625a3a2ba431098544127a80a6_0001_af2_000000214_0001_15_33_H_._HHH_b2_04566_0001_0000100008_0000001_0_af2pred_dldesign_0_af2pred (protein)
chain: SSSDPERRRRTLDKVVDIAAEAAGLSEEQRAKLRALVDELIAAGTPLAEAMKLINKRAAELSSSS
B16: il2ra_site2_3nfp_sap_28_mot_26b1ad55b226f03db0745a42e2bcfdd2_0001_af2_000000054_0001_35_50_H_._1fff0394edc8abfb79f738926a078c58_0001_0001_0000300019_0000001_0_0 … (protein)
chain: SSSSSSSDEEEVEELLEEAKRIDDEFEFAAVLALALFIAVESNNEELEKLVKEVARRSWSSSSSS
B17: il2ra_site2_2erj_sap_12_mot_HHH_b1_02466_000000018_0001_22_38_H_._HHH_b1_03184_0001_0000500013_0000001_0_0001 (protein)
chain: SSSNEDLHRAYELANEIMEALHKGDKERVEELLEELREIAERLQSDTLKEIIEFLEELLERQSSS
B18: il2ra_site1_2b5i_sap_10_mot_ems_3hM_3687_af2_000000248_0001_45_64_H_._HHH_b1_00192_af2_0001_0000400049_0000001_0_0001 (protein)
chain: SSSSSEATRRAQELFKEADRLDREGNPEEARKLLEEAEEVAEEGNSRAILKLIRFALEQVSSSSS

Target: il2ra, P01589
Test: yeast display titration

Apparent Kd, inactive:
B1 no binding seen
B2 no binding seen
B3 no binding seen
B4 no binding seen
B5 no binding seen
B6 no binding seen
B7 no binding seen
B8 no binding seen
B9 no binding seen
B10 no binding seen
B11 no binding seen
B12 no binding seen
B13 no binding seen
B14 no binding seen
B15 no binding seen
B16 no binding seen
B17 no binding seen
B18 no binding seen

Retrieved one by one from above (2):
Apparent Kd, inactive:
B13 no binding seen
B5 no binding seen
